Reference: PubChem BioAssay AID2551 (National Center for Advancing Translational Sciences (NCATS), 2010)
Hit rate of the full screen: of about 310,000 compounds, about 17,000 (5.5%) were called active. The inconclusive results got no clear call from the source; some entries with a clear call stand among them for comparison. Calls come from the whole dose curve; as a rule, active = well fitted inhibition curve with a large enough effect; inconclusive = small, poorly fitted or top-dose-only effect, or effect the other way; inactive = no such curve, though single readings can be large or run the other way. Potencies beside an inconclusive call are fits to weak or partial responses and may not hold up.

Sequences of proteins named here, by UniProt entry; tags and fusion partners are left off. A change or cut given only in a name is not applied to a line headed by its entry.
UniProt P51450: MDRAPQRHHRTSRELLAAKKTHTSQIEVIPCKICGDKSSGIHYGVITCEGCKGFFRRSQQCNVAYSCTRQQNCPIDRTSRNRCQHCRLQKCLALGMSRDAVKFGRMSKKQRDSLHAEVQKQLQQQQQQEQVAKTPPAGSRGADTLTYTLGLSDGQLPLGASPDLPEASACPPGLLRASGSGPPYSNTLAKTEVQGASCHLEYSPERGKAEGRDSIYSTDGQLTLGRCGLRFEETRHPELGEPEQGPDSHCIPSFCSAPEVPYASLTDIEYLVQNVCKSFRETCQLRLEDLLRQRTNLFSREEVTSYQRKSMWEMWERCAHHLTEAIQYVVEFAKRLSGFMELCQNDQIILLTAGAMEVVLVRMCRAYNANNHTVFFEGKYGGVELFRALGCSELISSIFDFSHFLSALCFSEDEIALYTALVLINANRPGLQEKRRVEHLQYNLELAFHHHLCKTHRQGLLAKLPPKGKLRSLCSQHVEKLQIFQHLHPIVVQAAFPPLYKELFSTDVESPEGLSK

Biological target: Nuclear receptor ROR-gamma (Mus musculus) (UniProt P51450)
Experiment: qHTS for inhibitors of ROR gamma transcriptional activity; note: nearly all actives have a fitted effect of over 60% in size
Conditions: Drosophila S2 Gal4-RORgamma UAS-luciferase reporter, 20 h; activity change, negative = inhibition: at 53.6 µM (top of the series)
Outline: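 Luciferase reporter read in Schneider cells carrying Gal4-RORγ (mouse) and UAS-Photinus luciferase; cells given compound 1 h before 700 uM copper sulfate induction, then incubated 20 h at ambient temperature.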
% is set by controls: 0 for no effect and ±100 for the full control effect; potency is the fitted concentration of half-maximal effect.

Structure (SMILES) | activity change, negative = inhibition | Potency
CCn1c(SCC(=O)N2CCCCC2C)nc2c1c(=O)n(C)c(=O)n2C (centres undefined) | inactive: 21.5% | –
COc1cc2c(cc1OC)C(C)N(C(=O)c1cc3n(n1)C(C(F)(F)F)CC(c1ccco1)N3)CC2 (centres undefined) | – | inconclusive: 0.631 µM [activator, full curve, poor fit]
CCc1ccc(NC(=O)c2sc3nc4n(c(=O)c3c2C)CCC4)cc1 | – | inconclusive: 12.6 µM [activator, partial curve]
CCN(C(=O)CN1C(=O)S/C(=C\c2ccc(F)cc2)C1=O)C1CCS(=O)(=O)C1 (centres undefined) | – | inconclusive: 11.2 µM [activator, partial curve]
COc1ccccc1/C=C/C=N/NC(=O)c1cc(-c2ccco2)[nH]n1 | – | active: 11.2 µM
O=C(O)CNC(=O)CCCn1nnc2ccccc2c1=O | inactive: 36.9% | –
Fc1ccc(-c2nnn(Cc3ccccc3Cl)n2)cc1 | – | inconclusive: 6.31 µM [activator, full curve, poor fit]
C#CCNC(=O)C1CCN(c2ccc(S(=O)(=O)N3CCOCC3)cc2Cl)CC1 | inactive: 39.6% | –
CC(C)c1cc(C(=O)OCC(=O)N2CCN(C(=O)c3ccco3)CC2)c(O)c(C(C)C)c1 | – | inconclusive: 35.5 µM [inhibitor, single point]
Cc1ccccc1Nc1nc(N)nc(COC(=O)c2cccc(S(=O)(=O)NCc3ccccc3)c2)n1 | – | inconclusive: 17.8 µM [activator, partial curve]
CCc1nccn1CCC(=O)N1CCCC(Nc2ccc(C(C)C)cc2)C1 (centres undefined) | inactive: -5.86% | –
COc1cccc(CNc2ccc3[nH]c(=O)[nH]c3c2)c1OCc1ccccc1 | – | inconclusive: 12.6 µM [activator, partial curve]
CC(C)c1ccc(COc2ccc(C(=O)N3CCOCC3)cc2)cc1 | – | inconclusive: 35.5 µM [inhibitor, single point]
Cc1cccc(-n2ncc3c2CCCC3NC(=O)C2=CC(=O)CC(C)(C)O2)c1C (centres undefined) | – | inconclusive: 5.01 µM [activator, full curve]
Cc1cc(C)c(C(=O)c2ccc(C(=O)N(C(C)C)C(C)C)cc2)c(C)c1 | inactive: -13% | –
Cc1cc(NCc2ccccc2)nc(-c2ccccc2O)n1 | – | inconclusive: 11.2 µM [activator, partial curve, poor fit]
CCOC(=O)c1ccc(NC(=O)c2ccccc2N(C)S(=O)(=O)c2ccccc2)cc1 | – | inconclusive: 11.2 µM [activator, partial curve]
CC(C)CCN1C(=O)c2ccc(C(=O)Nc3cccc(S(N)(=O)=O)c3)cc2C1=O | – | inconclusive: 10 µM [activator, partial curve]
O=C(c1ccccc1)N1CCCCC(Sc2nnnn2-c2ccccc2)C1=O (centres undefined) | – | inconclusive: 10 µM [activator, partial curve]
NC(=S)Nc1cccc2cc3ccccc3cc12 | – | active: 12.6 µM
COc1ccc(NC(=S)N2CCc3ccccc3C2)cc1 | – | inconclusive: 35.5 µM [inhibitor, single point]
CC(=O)Nc1ccc(S(=O)(=O)N2CCc3ccccc3C2CC(=O)O)cc1 (centres undefined) | inactive: -13.8% | –

Structure (SMILES) | activity change, negative = inhibition | Potency
CCCCc1ccc(C2C3=C(CC(C)(C)CC3=O)NC3=C2C(=O)c2ccccc23)cc1 (centres undefined) | inactive: -6.03% | –
O=C(CSc1nnc(COc2ccccc2)o1)Nc1nccs1 | – | inconclusive: 12.6 µM [inhibitor, single point]
CCOc1ccccc1-c1cc(C(=O)N/N=C(\C)c2cccnc2)c2ccccc2n1 | – | inconclusive: 22.4 µM [activator, single point]
O=C(Nc1ncc(Cc2ccccc2)s1)C1CCCO1 (centres undefined) | – | inconclusive: 12.6 µM [inhibitor, single point]
COc1cc(/C=N\NC(=O)c2cccnc2)ccc1OC(=O)c1ccccc1Cl | inactive: -2.88% | –
COC(=O)c1ccccc1NC(=S)NC(=O)C1CCCCC1 | – | active: 12.6 µM
COc1ccc(CC(=O)N2N=C(C)CC2(O)C(F)(F)F)cc1 (centres undefined) | – | active: 7.94 µM
O=C(CC(=O)c1ccccc1)Nc1cc(C(F)(F)F)ccc1Cl | – | inconclusive: 17.8 µM [activator, partial curve]
O=C(COc1ccccc1)NNC(=S)NC(=O)c1ccccc1 | – | active: 6.31 µM
O=C(CCc1ccccc1)NC(NC(=S)Nc1cccc(Cl)c1)C(Cl)(Cl)Cl (centres undefined) | – | inconclusive: 0.126 µM [activator, full curve, poor fit]
Cc1ccc(C(C)C)cc1S(=O)(=O)NCc1cccnc1 | – | inconclusive: 22.4 µM [inhibitor, single point]
O=C(NC(=S)NCc1cccnc1)c1ccccc1 | inactive: -33.2% | –
CC1CCN(c2cc(=O)n(C3CCCCC3)c(=O)[nH]2)CC1 | – | inconclusive: 3.55 µM [activator, partial curve]
CC1=CC(C)(C)NC(=S)N1c1ccc2ccccc2c1 | – | active: 3.55 µM
COc1ccccc1NC(=O)c1sc2ncn(CC(=O)Nc3ccccc3)c(=O)c2c1C | – | inconclusive: 5.62 µM [activator, single point]
CCc1cc(=O)oc2cc(C)cc(OC(C)C(=O)NCc3cccnc3)c12 (centres undefined) | inactive: -12.3% | –
CCCCC(=O)N1CCN(c2nc3ccc(Br)cc3s2)CC1 | – | inconclusive: 11.2 µM [activator, partial curve]
O=C(c1c(Cl)cccc1Cl)N1CCN(c2ccccn2)CC1 | inactive: -18% | –
O=C(COC(=O)c1n[nH]c2ccccc12)Nc1cccc(S(=O)(=O)N2CCOCC2)c1 | – | inconclusive: 17.8 µM [activator, single point]
O=C(CCCCCn1c(=S)[nH]c2ccsc2c1=O)NC1CCCCC1 | – | active: 11.2 µM
CSc1ncccc1C(=O)OCC(=O)c1ccc(Br)s1 | – | inconclusive: 35.5 µM [activator, single point]

2 entries from above, set out differently.
Structure (SMILES),"activity change, negative = inhibition",Potency
CCCCC(=O)N1CCN(c2nc3ccc(Br)cc3s2)CC1,–,"inconclusive: 11.2 µM [activator, partial curve]"
O=C(c1c(Cl)cccc1Cl)N1CCN(c2ccccn2)CC1,inactive: -18%,–
